In paper PMC12713375:
Results are given in words; binding and its absence hold for the method and conditions named. Binding calls can cover weak binding; strength is not graded here.

How the values were obtained:
[1] = target: full-length FlhF, purified (P. aeruginosa PAO1); assay: dynamic light scattering; 0.01 mM each of FlhF and FliG (1:1), 25 mM Tris pH 8, 10 mM MgCl2; no nucleotide; hydrodynamic diameters, Malvern Zetasizer; both purified
[2] = target: full-length FlhF, purified (P. aeruginosa PAO1); assay: dynamic light scattering; 0.01 mM each of FlhF and FliG, 25 mM Tris pH 8, 10 mM MgCl2; FlhF preincubated on ice for 40 minutes with 10-fold GMPPNP, then 45 minutes with FliG; both purified

B1: full-length FliG, purified (protein, UniProt Q51464 1-338)
chain: MSENRLAAKLTKVDKAAILLLSLGETDAAQVLRHMGPKEVQRVGVAMASMRNVHREQVEQVMGEFVEVVGDQTSLGVGADGYIRKMLTQALGEDKANNLIDRILLGGSTSGLDSLKWMEPRAVADVIRYEHPQIQAIVVAYLDPDQAAEVLSHFDHKVRLDIVLRVSSLNTVQPSALKELNLILEKQFAGNSNATRTTMGGVKRAADIMNYLDSSIEGQLMDSIREVDEDLSGQIEDLMFVFDNLADVDDRGIQALLREVSSDVLVLALKGSDEAIREKVFKNMSKRAAELLRDDLEAKGPVRVSEVEGAQKEILTIARRMAESGDIVLGGKGGEEMI
B1 was tested, and the binding [1] was “binds” and the binding [2] was “binds”.
